Experimental data reported in article PMC4364099.
Results are given in words; binding and its absence hold for the method and conditions named. For some of these results: Binding seen in cells or lysates may run through a third protein. Some results given as binding are weak or reduced against the parent protein; the word gives no strength.

Protein sequences, listed by entry. Tags and fused reporters are not part of them. Residues count along the entry.
UniProt O95180, residues 1556-1602: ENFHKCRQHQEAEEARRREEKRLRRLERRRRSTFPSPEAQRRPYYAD
UniProt O88427: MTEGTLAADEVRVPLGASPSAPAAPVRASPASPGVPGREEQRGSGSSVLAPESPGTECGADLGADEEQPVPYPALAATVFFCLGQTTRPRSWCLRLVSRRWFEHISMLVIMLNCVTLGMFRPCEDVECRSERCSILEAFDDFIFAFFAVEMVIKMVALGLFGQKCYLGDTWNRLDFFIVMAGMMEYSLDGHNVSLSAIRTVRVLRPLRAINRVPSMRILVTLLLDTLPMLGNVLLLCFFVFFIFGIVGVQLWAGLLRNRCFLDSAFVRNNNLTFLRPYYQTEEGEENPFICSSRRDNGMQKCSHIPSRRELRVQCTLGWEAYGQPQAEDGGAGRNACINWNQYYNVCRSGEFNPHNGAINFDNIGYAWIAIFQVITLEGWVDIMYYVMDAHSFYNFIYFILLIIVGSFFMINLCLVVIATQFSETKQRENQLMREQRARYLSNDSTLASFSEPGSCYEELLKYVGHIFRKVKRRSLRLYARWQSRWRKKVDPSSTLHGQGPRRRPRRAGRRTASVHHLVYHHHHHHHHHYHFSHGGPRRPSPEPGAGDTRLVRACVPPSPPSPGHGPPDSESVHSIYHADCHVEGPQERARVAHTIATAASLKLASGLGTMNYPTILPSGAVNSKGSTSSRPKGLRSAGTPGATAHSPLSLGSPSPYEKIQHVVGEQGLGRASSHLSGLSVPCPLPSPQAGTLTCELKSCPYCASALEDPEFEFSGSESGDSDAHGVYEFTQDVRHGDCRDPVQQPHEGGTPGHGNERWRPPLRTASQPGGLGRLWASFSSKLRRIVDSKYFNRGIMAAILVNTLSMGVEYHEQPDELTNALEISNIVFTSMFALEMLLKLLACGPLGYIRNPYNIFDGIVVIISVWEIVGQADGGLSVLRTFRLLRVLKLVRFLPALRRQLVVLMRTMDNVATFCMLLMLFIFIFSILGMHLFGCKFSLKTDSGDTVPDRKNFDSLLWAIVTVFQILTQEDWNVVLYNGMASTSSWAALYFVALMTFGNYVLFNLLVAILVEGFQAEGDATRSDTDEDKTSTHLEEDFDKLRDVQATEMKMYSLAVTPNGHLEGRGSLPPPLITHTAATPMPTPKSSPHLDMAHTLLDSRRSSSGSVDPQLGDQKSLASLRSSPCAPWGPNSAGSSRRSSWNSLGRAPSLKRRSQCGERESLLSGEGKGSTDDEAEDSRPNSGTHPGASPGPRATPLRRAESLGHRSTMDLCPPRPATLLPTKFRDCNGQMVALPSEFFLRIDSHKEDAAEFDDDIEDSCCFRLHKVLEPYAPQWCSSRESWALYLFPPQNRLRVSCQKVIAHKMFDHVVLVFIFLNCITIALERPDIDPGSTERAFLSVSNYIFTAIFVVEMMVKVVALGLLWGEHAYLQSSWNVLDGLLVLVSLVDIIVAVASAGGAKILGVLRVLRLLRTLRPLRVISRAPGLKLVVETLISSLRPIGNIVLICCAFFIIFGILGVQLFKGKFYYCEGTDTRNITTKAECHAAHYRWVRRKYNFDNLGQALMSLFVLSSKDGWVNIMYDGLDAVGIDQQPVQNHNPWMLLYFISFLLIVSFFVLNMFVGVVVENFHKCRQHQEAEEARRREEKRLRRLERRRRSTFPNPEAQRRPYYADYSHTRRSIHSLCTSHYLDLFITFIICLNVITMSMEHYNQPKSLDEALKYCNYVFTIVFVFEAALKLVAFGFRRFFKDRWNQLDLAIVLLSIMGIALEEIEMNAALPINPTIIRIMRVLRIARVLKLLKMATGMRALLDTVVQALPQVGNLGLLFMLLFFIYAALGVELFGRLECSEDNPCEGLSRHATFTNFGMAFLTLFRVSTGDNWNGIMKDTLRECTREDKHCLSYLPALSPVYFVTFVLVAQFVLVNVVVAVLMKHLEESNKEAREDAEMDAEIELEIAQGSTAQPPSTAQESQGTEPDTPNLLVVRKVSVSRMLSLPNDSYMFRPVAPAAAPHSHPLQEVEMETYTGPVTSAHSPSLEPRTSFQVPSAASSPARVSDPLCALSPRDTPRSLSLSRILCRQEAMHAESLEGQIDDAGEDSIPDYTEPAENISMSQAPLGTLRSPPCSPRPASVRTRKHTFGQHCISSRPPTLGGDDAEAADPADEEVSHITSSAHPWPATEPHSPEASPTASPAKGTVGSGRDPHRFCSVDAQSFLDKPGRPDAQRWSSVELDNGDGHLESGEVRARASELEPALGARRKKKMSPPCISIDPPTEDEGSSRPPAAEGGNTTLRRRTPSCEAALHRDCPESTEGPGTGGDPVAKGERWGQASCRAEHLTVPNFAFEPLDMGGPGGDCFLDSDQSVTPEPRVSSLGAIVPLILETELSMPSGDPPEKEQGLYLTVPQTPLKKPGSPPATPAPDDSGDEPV
UniProt P45974: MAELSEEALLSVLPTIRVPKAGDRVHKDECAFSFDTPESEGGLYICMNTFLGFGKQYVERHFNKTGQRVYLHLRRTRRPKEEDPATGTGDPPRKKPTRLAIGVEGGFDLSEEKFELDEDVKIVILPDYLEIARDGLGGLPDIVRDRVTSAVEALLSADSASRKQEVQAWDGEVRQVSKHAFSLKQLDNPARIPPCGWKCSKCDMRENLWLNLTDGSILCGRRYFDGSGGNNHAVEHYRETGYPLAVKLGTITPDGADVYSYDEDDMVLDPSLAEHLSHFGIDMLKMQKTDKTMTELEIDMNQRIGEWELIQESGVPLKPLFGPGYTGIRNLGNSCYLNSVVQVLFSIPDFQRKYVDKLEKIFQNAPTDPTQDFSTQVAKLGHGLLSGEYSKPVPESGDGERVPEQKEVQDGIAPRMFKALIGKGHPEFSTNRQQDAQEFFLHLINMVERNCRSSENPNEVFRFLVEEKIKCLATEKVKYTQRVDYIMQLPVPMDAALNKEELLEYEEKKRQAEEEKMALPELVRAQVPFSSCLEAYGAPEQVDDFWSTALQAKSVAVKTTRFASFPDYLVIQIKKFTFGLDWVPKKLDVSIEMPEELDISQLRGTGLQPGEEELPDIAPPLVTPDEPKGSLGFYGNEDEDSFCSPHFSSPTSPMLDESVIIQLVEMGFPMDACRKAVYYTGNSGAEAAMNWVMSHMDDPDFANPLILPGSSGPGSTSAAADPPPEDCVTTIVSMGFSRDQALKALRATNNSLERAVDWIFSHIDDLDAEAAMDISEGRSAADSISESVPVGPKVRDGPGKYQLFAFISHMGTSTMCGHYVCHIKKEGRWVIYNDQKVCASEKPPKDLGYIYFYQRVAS
UniProt P56399: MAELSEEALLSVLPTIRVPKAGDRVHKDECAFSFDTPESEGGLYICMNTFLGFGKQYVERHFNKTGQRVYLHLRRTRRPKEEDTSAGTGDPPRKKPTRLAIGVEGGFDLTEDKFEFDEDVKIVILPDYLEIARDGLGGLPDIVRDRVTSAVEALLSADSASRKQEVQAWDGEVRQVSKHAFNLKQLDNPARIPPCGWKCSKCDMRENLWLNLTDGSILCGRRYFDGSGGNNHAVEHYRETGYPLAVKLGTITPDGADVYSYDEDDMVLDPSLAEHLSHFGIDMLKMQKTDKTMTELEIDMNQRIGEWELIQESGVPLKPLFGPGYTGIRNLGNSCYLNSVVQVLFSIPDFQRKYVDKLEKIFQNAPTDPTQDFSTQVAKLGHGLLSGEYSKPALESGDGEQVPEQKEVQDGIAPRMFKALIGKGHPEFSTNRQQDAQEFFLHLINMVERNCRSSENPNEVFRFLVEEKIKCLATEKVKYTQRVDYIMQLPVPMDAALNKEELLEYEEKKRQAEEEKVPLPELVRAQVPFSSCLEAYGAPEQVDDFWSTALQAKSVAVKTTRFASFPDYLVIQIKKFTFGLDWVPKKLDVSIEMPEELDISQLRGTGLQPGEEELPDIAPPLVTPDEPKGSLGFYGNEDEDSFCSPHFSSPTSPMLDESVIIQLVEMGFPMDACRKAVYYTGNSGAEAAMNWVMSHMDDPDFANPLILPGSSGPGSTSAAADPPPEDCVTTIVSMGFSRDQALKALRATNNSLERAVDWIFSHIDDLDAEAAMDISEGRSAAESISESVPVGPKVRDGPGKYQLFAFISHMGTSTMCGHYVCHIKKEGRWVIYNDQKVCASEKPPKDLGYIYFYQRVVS

How the values were obtained:
[1] = molecular target: biotinylated human Cav3.2(1556-1602)-III-IV linker peptide (46 mer) (human) (UniProt O95180); experiment: ELISA; 384-well screening format: neutravidin-coated plates, biotinylated Cav3.2 III-IV linker peptide (0.0039 ug/ul, 15 ul), USP5 (0.00078 ug/ul, 15 ul), Tris buffer (50 mM Tris, 150 mM NaCl, pH 7.5), RT; compounds at 6.3 uM; negative control wells without USP5; detection by anti-USP5, HRP secondary, QuantaBlu RFU; both purified
[2] = molecular target: biotinylated human Cav3.2(1556-1602)-III-IV linker peptide (46 mer) (human) (UniProt O95180); experiment: ELISA; 96-well neutravidin-coated plate with 5 ug biotinylated Cav3.2 46 mer; 0.5 ug recombinant hUSP5 long, preincubated or not with 50 ug non-biotinylated 21 mer for 1 h at RT; 50 mM Tris, 150 mM NaCl, 0.05% Tween-20; detection by rabbit anti-USP5, HRP secondary, QuantaBlu RFU (Ex/Em 325/440 nm); both purified
[3] = molecular target: Cav3.2 channel (endogenous, mouse) (mouse (endogenous in mouse brain and dorsal horn)) (UniProt O88427); experiment: co-IP; mouse dorsal horn lysates from naive mice and from diabetic (ob/ob) mice treated i.t. with vehicle or suramin (10 ug); anti-Cav3.2 (H-300) immunoprecipitates probed for USP5 by western blot
[4] = molecular target: Cav3.2 channel (endogenous, mouse) (mouse (endogenous in mouse brain and dorsal horn)) (UniProt O88427); experiment: co-IP; whole mouse brain lysate in modified RIPA buffer; anti-Cav3.2 (H-300) with Protein G/A beads overnight at 4°C; immunoprecipitates incubated with vehicle, suramin, gossypetin or oxytetracycline; blot for USP5

| binding [1] | binding [2] | binding [3] | binding [4] | Substance |
| --- | --- | --- | --- | --- |
| binds | binds | – | – | recombinant human USP5 (long splice isoform) (from UniProt P45974 1-858) (enzyme) |
| – | – | binds | binds | USP5 (endogenous, mouse) (from UniProt P56399 1-858) (enzyme) |
